The other results are listed elsewhere or left out.
The targets below were run with Cc1cc(ccc1-c1ccccc1)C(=O)N1CCCN(CC1)C(=O)CCl [compound 10] (assay: probe-labelled cysteine peptide fold change vs DMSO (competition) (log2 fold change); higher = less target engagement (more negative = stronger competition)). Details: 50 µM; THP-1; incubation time: 4 h.
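Further: competitive profiling in live THP-1 cells: cysteine peptides tagged with an iodoacetamide desthiobiotin (IA-DTB) probe, intensity after compound treatment relative to DMSO-treated cells.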

Amino acid sequences for entries named in this document (tags omitted). A change or cut given only in a name is not applied to a line headed by its entry.
UniProt P23141: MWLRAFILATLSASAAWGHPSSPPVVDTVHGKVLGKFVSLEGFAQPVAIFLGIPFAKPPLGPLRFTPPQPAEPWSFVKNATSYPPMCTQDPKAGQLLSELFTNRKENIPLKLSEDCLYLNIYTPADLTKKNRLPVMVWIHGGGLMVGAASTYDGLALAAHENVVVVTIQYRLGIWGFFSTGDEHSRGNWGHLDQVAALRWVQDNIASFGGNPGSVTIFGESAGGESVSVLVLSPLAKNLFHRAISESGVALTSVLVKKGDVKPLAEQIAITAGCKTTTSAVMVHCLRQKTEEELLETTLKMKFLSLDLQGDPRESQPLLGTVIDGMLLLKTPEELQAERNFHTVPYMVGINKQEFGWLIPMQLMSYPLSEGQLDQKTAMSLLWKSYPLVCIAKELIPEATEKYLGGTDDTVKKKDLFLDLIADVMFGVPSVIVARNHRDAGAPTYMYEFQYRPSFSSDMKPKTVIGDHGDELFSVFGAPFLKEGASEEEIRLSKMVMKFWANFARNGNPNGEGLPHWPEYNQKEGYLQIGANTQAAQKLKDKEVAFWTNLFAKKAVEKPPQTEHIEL
UniProt P25942, whole entry, looked up: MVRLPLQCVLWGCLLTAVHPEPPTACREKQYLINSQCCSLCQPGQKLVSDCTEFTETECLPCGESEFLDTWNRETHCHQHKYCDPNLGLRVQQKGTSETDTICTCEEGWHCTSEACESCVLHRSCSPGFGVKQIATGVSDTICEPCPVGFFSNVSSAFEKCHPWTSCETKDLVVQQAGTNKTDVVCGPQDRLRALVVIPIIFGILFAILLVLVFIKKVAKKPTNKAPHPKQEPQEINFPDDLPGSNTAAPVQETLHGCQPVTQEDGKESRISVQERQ
UniProt Q92879: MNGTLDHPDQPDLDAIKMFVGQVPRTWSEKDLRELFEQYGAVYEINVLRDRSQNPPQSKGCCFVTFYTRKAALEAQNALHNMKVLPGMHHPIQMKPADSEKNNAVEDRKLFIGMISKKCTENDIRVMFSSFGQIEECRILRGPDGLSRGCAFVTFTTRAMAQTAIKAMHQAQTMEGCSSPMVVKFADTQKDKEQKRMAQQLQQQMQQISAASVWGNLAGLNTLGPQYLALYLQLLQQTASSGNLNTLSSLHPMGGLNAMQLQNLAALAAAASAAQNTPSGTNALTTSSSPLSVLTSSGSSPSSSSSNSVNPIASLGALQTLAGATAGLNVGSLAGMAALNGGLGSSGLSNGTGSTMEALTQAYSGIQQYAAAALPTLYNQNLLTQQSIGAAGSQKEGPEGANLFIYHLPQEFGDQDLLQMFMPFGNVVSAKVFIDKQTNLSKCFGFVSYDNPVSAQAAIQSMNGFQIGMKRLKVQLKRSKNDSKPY
UniProt Q99832: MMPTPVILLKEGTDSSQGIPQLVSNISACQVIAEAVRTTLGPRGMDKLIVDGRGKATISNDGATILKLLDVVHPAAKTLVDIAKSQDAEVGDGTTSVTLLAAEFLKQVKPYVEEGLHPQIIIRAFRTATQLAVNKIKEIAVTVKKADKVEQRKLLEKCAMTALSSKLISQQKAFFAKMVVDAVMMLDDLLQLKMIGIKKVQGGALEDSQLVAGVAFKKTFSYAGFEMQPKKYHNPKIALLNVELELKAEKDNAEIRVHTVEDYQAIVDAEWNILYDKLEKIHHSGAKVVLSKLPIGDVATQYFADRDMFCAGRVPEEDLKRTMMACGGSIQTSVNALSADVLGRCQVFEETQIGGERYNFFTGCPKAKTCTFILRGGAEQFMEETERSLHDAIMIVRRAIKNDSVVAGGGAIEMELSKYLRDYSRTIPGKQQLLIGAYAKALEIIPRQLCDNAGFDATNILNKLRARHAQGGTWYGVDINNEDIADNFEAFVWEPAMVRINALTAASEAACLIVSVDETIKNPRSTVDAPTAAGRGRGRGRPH
UniProt Q8TEP8: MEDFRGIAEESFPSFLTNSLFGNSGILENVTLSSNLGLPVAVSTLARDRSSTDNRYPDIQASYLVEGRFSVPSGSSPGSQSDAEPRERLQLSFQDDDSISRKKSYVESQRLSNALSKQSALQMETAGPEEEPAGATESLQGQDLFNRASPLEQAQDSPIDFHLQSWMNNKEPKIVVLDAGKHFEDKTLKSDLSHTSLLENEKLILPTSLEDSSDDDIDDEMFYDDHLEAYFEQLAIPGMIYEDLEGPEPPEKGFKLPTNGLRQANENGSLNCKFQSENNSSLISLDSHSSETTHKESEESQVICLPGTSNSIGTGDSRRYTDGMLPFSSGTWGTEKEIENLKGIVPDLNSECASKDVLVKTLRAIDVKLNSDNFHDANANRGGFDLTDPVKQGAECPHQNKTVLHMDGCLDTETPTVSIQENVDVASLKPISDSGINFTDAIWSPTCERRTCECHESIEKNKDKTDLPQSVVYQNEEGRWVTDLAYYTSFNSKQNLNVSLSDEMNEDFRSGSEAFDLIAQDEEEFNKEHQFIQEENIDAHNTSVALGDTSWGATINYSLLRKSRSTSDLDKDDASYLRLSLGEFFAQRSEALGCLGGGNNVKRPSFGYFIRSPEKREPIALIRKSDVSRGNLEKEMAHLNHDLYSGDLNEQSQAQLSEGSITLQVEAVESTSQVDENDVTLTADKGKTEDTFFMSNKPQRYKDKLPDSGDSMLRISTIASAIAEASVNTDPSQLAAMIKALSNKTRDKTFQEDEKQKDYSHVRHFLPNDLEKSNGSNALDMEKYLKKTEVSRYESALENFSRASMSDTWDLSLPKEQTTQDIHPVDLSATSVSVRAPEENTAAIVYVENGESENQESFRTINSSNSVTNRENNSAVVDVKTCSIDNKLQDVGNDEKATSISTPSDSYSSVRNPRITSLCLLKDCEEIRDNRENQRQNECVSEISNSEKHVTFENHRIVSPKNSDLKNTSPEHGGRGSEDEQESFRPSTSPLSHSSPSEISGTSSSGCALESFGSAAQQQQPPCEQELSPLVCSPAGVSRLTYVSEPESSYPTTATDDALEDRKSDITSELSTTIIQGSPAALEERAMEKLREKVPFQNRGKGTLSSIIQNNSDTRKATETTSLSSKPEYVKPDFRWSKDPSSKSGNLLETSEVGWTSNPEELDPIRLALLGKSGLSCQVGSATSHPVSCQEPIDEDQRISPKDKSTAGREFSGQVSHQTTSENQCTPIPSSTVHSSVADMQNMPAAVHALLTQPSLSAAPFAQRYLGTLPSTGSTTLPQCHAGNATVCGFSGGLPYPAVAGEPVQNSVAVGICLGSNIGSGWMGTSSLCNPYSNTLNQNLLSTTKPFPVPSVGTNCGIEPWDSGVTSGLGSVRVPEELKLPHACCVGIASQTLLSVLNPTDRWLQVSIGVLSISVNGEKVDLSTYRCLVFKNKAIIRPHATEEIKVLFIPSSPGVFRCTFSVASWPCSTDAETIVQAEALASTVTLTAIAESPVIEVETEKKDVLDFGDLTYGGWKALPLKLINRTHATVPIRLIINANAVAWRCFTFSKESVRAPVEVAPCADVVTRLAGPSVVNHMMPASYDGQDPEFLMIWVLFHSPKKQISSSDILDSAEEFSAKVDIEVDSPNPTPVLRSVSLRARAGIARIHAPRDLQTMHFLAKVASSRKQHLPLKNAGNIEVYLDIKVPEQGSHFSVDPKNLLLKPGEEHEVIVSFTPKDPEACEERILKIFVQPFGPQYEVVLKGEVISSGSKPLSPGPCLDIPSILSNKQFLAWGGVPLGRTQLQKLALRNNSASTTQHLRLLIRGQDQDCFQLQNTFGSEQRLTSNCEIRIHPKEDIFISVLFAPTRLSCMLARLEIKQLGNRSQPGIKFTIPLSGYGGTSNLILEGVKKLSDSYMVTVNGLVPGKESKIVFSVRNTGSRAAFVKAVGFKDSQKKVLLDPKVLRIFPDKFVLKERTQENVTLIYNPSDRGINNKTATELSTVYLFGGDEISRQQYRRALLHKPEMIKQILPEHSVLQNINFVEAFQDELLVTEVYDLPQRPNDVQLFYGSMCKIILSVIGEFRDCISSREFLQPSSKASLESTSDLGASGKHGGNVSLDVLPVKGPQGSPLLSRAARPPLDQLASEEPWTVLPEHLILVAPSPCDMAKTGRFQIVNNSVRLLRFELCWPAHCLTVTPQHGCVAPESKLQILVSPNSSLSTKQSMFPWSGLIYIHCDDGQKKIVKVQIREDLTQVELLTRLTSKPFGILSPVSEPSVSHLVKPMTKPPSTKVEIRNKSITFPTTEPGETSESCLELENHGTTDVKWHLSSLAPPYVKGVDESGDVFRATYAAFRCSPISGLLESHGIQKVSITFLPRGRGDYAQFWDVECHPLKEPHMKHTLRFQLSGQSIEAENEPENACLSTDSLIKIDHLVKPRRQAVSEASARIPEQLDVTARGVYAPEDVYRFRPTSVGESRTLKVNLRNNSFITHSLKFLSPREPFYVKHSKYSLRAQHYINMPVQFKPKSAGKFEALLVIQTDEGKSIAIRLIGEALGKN
UniProt Q13042, whole entry, looked up: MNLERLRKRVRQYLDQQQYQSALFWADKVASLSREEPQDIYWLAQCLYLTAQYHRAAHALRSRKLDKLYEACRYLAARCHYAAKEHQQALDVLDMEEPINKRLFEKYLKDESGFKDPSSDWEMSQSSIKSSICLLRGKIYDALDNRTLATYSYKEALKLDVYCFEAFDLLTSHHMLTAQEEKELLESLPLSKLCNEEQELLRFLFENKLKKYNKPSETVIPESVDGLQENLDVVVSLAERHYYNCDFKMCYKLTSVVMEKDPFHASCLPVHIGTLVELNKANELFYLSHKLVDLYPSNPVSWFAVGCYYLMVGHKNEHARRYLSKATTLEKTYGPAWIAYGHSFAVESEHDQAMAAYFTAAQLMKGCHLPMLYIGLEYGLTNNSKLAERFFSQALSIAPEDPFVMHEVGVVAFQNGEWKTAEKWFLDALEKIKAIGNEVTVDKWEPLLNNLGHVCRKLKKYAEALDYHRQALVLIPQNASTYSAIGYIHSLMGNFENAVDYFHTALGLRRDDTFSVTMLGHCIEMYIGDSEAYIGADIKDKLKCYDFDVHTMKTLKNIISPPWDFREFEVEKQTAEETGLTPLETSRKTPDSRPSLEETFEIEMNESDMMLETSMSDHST
UniProt O95319: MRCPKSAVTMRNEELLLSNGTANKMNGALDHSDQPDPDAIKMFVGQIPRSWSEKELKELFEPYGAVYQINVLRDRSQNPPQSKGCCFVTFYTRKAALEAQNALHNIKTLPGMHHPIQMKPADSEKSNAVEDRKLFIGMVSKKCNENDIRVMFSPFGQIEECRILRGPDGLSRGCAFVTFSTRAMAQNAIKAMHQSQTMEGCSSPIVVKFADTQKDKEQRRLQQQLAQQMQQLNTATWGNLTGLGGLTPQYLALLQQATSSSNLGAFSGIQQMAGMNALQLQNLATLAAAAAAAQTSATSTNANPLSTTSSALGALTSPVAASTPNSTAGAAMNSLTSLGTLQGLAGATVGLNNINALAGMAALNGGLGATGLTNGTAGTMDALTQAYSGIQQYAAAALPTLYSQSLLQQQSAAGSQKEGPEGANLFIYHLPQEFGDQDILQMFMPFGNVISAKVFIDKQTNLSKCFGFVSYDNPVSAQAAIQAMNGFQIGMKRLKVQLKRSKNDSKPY
UniProt P60953, whole entry, looked up: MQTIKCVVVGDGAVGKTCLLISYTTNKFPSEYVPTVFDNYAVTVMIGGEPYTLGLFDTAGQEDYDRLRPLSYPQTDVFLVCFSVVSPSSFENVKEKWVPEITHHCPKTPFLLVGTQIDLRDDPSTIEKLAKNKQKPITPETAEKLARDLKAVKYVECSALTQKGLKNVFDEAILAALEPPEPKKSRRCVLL
UniProt Q96GN5: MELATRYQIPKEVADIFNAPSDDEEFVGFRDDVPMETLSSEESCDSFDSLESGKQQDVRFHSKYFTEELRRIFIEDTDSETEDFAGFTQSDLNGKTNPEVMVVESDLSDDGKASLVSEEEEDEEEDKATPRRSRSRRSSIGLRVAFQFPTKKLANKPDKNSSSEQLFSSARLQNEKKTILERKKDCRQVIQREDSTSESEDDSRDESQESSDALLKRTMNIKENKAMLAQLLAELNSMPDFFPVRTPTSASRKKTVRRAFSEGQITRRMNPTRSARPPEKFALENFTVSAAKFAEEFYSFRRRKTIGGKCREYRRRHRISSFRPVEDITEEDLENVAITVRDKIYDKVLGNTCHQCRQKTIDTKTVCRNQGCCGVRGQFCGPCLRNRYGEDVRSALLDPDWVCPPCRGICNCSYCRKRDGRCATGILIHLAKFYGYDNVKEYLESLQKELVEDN
UniProt P11049: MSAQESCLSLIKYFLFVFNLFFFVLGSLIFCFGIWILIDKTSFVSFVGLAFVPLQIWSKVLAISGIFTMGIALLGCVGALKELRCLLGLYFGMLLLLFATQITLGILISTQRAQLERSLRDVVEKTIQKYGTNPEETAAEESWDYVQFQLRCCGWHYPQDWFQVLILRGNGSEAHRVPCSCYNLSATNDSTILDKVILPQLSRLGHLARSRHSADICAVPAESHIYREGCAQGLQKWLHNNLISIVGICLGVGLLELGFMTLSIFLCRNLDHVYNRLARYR

In order of falling “probe-labelled cysteine peptide fold change” value:
1. CES1_P23141_274_PLAEQIAITAGCK (UniProt P23141)  0.523
2. CENPF_P49454_503_EVCHLEAELK (UniProt P49454)  0.303
3. CD40_P25942_186_TDVVCGPQDR (UniProt P25942)  0.303
4. CES1_P23141_274_KGDVKPLAEQIAITAGCK (UniProt P23141)  0.19
5. CELF1_Q92879_150_GCAFVTFTTR (UniProt Q92879)  0.178
6. CCT7_Q99832_326_RTMMACGGSIQTSVNALSADVLGR (UniProt Q99832)  0.162
7. CCT6A_P40227_282_VCGDSDK (UniProt P40227)  0.153
8. CEP192_Q8TEP8_1828_LTSNCEIR (UniProt Q8TEP8)  0.145
9. CEP97_Q8IW35_484_AGLLPCPEPTIISAILK (UniProt Q8IW35)  0.142
10. CDC16_Q13042_455_AIGNEVTVDKWEPLLNNLGHVCR (UniProt Q13042)  0.126
11. CD81_P60033_175_NNLCPSGSNIISNLFK (UniProt P60033)  0.0727
12. CD70_P32970_151_LSFHQGCTIASQR (UniProt P32970)  0.0696
13. CDC23_Q9UJX2_324_SELSYLAHNLCEIDK (UniProt Q9UJX2)  0.0685
14. CCT5_P48643_440_CPTLEQYAMR (UniProt P48643)  0.0642
15. CCT8_P50990_187_LIAQACVSIFPDSGHFNVDNIR (UniProt P50990)  0.0493
16. CELF2_O95319_174_GCAFVTFSTR (UniProt O95319)  0.0429
17. CDC27_P30260_115_SHDDIVTEFGDSACFTLSLLGHVYCK (UniProt P30260)  0.0274
18. CELF1_Q92879_137_VMFSSFGQIEECR (UniProt Q92879)  0.0111
19. CEP41_Q9BYV8_240_IIILYDDDERLASQAATTMCER (UniProt Q9BYV8)  0.00114
20. CEP350_Q5VT06_2910_RVTQQPCETLLAVPHTAEEVEILVHNAAEELWK (UniProt Q5VT06)  -0.0102
21. CELF2_O95319_161_VMFSPFGQIEECR (UniProt O95319)  -0.0177
22. CDK5RAP3_Q96JB5_150_KEEECQAGAAEMR (UniProt Q96JB5)  -0.0264
23. CDC42_P60953_105_WVPEITHHCPK (UniProt P60953)  -0.0283
24. CD40_P25942_116+119_GTSETDTICTCEEGWHCTSEACESCVLHR (UniProt P25942)  -0.0416
25. CCT8_P50990_136_IGLSVSEVIEGYEIACRK (UniProt P50990)  -0.115
26. CEP120_Q8N960_762_AKEDCIHQVELER (UniProt Q8N960)  -0.117
27. CDCA7L_Q96GN5_383_GQFCGPCLR (UniProt Q96GN5)  -0.185
28. CCT7_Q99832_310_LPIGDVATQYFADRDMFCAGR (UniProt Q99832)  -0.214
29. CDKN2AIP_Q9NXV6_503_SSQESIVCELR (UniProt Q9NXV6)  -0.247
30. CD37_P11049_217_HSADICAVPAESHIYR (UniProt P11049)  -0.279
31. CDC45_O75419_267_HNHRNEDEENTLSVDCTR (UniProt O75419)  -0.279
32. CEP250_Q9BV73_110_CESLAEVNTQLR (UniProt Q9BV73)  -0.31
33. CEP192_Q8TEP8_396_QGAECPHQNK (UniProt Q8TEP8)  -0.369
34. CEP85_Q6P2H3_380_PAPFGDVCLLR (UniProt Q6P2H3)  -0.383
35. CEP350_Q5VT06_2412_DSQSCR (UniProt Q5VT06)  -0.521
36. CDK8_P49336_64_QIEGTGISMSACR (UniProt P49336)  -0.537
37. CEP350_Q5VT06_211_FLNDRPAIDALQNSECLIR (UniProt Q5VT06)  -0.546
38. CCT8_P50990_347_LTPPVLEEMGHCDSVYLSEVGDTQVVVFKHEKEDGAISTIVLR (UniProt P50990)  -0.714
39. CDC42_P60953_105_EKWVPEITHHCPK (UniProt P60953)  -0.929
